Results reported in paper PMC10298702.
These are yes or no findings as the source states them, for the method shown. In cells and extracts the contact can be indirect. Some results given as binding are weak or reduced against the parent protein; the word gives no strength.

The chains behind the UniProt entries cited, without tags or fusion partners. Residues count along the entry.
UniProt P37023, residues 22-503: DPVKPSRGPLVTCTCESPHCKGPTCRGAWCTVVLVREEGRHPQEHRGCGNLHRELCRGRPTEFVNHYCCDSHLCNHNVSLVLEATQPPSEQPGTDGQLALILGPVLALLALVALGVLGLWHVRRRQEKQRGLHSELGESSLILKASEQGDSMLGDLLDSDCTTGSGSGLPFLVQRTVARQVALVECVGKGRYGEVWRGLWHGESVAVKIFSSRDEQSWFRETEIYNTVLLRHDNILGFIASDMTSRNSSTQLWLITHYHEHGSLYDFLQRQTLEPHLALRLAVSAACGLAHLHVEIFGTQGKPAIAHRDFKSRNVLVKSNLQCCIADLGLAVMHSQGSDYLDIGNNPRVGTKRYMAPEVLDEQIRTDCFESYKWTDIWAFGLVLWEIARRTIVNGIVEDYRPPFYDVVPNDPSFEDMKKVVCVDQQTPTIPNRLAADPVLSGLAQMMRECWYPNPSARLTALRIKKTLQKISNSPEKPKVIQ

Legend:
Assay in all cases: co-IP; hPdLFs at 75% confluency stimulated with 5 ng/mL rhGDF15 for 24 h, harvested in ice-cold PBS; precipitation with antibodies against ALK1, ALK2 or ALK5; GDF15 detected by semi-dry Western blot; only the binder purified
[1] = target: T1, Activin A receptor type 1 (ALK2) (human (endogenous in hPdLFs)) (UniProt Q04771)
T1 sequence: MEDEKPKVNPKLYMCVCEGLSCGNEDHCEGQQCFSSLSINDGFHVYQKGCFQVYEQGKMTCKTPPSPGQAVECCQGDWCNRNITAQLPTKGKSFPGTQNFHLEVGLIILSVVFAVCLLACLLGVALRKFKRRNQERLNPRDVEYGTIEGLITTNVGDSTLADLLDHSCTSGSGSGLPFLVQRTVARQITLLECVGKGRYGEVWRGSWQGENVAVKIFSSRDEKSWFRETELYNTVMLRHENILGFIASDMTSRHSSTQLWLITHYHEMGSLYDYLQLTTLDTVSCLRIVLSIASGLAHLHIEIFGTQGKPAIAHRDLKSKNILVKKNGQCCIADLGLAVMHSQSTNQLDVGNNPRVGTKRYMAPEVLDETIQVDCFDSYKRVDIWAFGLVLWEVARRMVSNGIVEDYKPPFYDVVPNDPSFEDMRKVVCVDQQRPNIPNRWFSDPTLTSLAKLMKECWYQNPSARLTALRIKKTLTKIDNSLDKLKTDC

[2] = target: Activin A receptor like type 1 (ALK1) (human (endogenous in hPdLFs)) (UniProt P37023)
[3] = target: T2, Transforming growth factor beta receptor 1 (ALK5) (human (endogenous in hPdLFs)) (UniProt P36897)
T2 sequence: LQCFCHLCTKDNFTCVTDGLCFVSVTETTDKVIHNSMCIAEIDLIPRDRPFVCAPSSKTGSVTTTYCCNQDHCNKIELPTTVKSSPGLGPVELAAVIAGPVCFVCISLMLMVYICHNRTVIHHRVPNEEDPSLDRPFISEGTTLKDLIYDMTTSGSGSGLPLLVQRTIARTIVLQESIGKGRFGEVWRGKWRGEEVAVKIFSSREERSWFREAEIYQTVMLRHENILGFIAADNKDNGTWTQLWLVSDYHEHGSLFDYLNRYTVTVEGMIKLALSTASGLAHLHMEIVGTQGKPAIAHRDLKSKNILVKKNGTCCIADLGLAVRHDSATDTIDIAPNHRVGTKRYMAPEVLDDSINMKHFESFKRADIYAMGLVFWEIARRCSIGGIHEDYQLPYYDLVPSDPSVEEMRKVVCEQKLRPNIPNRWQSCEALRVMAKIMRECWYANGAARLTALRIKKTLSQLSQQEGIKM

Measured: binding

B1: recombinant human GDF15 (growth differentiation factor 15) (ligand, UniProt Q99988 195-308)
chain: ARARNGDHCPLGPGRCCRLHTVRASLEDLGWADWVLSPREVQVTMCIGACPSQFRAANMHAQIKTSLHRLKPDTVPAPCCVPASYNPMVLIQKTDTGVSLQTYDDLLAKDCHCI
binds: [1] | [2] | [3]
